# Assay results as given in patent EP0148096A1, “Diversely substituted 1-arylamino-3-amino-2-propanols, process for their preparation and their therapeutical application” (CORTIAL S.A., priority 1983, dated 1985).
# Some of these results come from one statement about several compounds together.
# Test system: récepteurs béta2 adrénergiques
# Experiment: beta-blocking activity (in vitro guinea pig atrium with isoproterenol; in vivo mouse tachycardia; anaesthetised rat blood pressure and heart rate)
# Conditions: in vitro oreillette de cobaye (isoprotérénol); in vivo souris et rat normal anesthésié
row,SMILES,activité bétabloquante
1,"CC(C)c1ccccc1NCC(O)CNC(C)(C)C (centres unmarked) [COR37 05C, Dichlorhydrate de l'(isopropyl-2 anilino)-1 tertiobutylamino-3 propanol-2]",n'est actif que vis-à-vis des récepteurs béta2 adrénergiques
2,"Cc1cccc(C(C)C)c1NCC(O)CNC(C)(C)C (centres unmarked) [COR37 06C, Dichlorhydrate de l'(isopropyl-2 méthyl-6 anilino)-1 tertiobutylamino-3 propanol-2]",ne présentent pas de propriétés bétabloquantes
3,"Cc1ccc(NCC(O)CNC(C)(C)C)cc1 (centres unmarked) [COR37 09C, Dichlorhydrate du (méthyl-4 anilino)-1 tertiobutylamino-3 propanol-2]",ne présentent pas de propriétés bétabloquantes
4,"CC(C)c1ccccc1NCC(O)CN(C)C (centres unmarked) [COR37 49C, Dichlorhydrate de l'(isopropyl-2 anilino)-l diméthylamino-3 propanol-2]",ne présentent pas de propriétés bétabloquantes
5,"Cc1cccc(C(C)C)c1NCC(O)CN(C)C (centres unmarked) [COR37 50C, Dichlorhydrate de l' (isopropyl-2 méthyl-6 anilino)-1 diméthylamino-3 propanol-2]",ne présentent pas de propriétés bétabloquantes
